For six compounds, T/C results are on record in PubChem BioAssay AID248 (DTP/NCI, 2004).

The test system of the test is L1210 leukemia ip in BDF1 mice, survival T/C. The test is described as follows: NCI In Vivo Anticancer Drug Screen. Data for tumor model L1210 Leukemia (intraperitoneal) in B6D2F1 (BDF1) mice. As to conditions: T/C endpoint: mean survival time, higher T/C = longer survival.

The list does not hold the whole screen: its compounds were picked by chemical class. Other doses and runs of a compound may be missing. T/C gives the treated animals as a percentage of the vehicle group. For survival time, the PubChem record calls one and a half times the control and up active, and a quarter to a half above the control has no call in these data; cut-offs in other NCI protocols can differ. Some entries show no survivor count and are marked so; the dose need not have been tolerated. Schedule codes are those of the source, read here as Q, the interval in days (D) or hours (H), X, the number of doses. Some entries were tested several times; the results are listed from low to high. Brackets with × count equal records among those shown. Some schedules carry Z or #; the key to these is not given.

Turning to `Cc1ccc(C(=O)O)cc1N(CCCl)CCCl`, the T/C (dose: 1.1 mg/kg/injection, schedule: Q01DX009 (ip), vehicle: Klucel (hydroxypropylcellulose) (HPC)) was 116 % of control [survivor count not shown]; the T/C (dose: 1.56 mg/kg/injection, schedule: Q01DX009 (ip), vehicle: Klucel (hydroxypropylcellulose) (HPC)) was 103 % of control [survivor count not shown]; the T/C (dose: 1.7 mg/kg/injection, schedule: Q01DX009 (ip), vehicle: Klucel (hydroxypropylcellulose) (HPC)) was 108 % of control [survivor count not shown]; the T/C (dose: 2.6 mg/kg/injection, schedule: Q01DX009 (ip), vehicle: Klucel (hydroxypropylcellulose) (HPC)) is 117 % of control [survivor count not shown]; the T/C (dose: 3.12 mg/kg/injection, schedule: Q01DX009 (ip), vehicle: Klucel (hydroxypropylcellulose) (HPC)) was 108 % of control [survivor count not shown]; the T/C (dose: 3.12 mg/kg/injection, schedule: Q04DX003 (ip), vehicle: Klucel (hydroxypropylcellulose) (HPC)) is 90 % of control [survivor count not shown]. Besides, the T/C is, setting by setting: (dose: 4.0 mg/kg/injection, schedule: Q01DX009 (ip), vehicle: Klucel (hydroxypropylcellulose) (HPC)) 105 % of control [survivor count not shown]; (dose: 6.1 mg/kg/injection, schedule: Q01DX009 (ip), vehicle: Klucel (hydroxypropylcellulose) (HPC)) 170 % of control [survivor count not shown]; (dose: 6.2 mg/kg/injection, schedule: Q04DX003 (ip), vehicle: Klucel (hydroxypropylcellulose) (HPC)) 114 % of control [survivor count not shown]; (dose: 6.25 mg/kg/injection, schedule: Q01DX009 (ip), vehicle: Klucel (hydroxypropylcellulose) (HPC)) 121 % of control [survivor count not shown]; (dose: 6.25 mg/kg/injection, schedule: Q04DX003 (ip), vehicle: Klucel (hydroxypropylcellulose) (HPC)) 101 % of control [survivor count not shown]; (dose: 8.3 mg/kg/injection, schedule: Q04DX003 (ip), vehicle: Klucel (hydroxypropylcellulose) (HPC)) 139 % of control [survivor count not shown]. Moreover, the T/C was 176 % of control [survivor count not shown] (dose: 12.5 mg/kg/injection, schedule: Q01DX009 (ip), vehicle: Klucel (hydroxypropylcellulose) (HPC)); 101 [survivor count not shown], 136 [survivor count not shown], 155 % of control [survivor count not shown] (dose: 12.5 mg/kg/injection, schedule: Q04DX003 (ip), vehicle: Klucel (hydroxypropylcellulose) (HPC)); 95 % of control [survivor count not shown] (dose: 18.0 mg/kg/injection, schedule: Q01DX009 (ip), vehicle: Klucel (hydroxypropylcellulose) (HPC)); 111 % of control [survivor count not shown] (dose: 18.7 mg/kg/injection, schedule: Q04DX003 (ip), vehicle: Klucel (hydroxypropylcellulose) (HPC)); 100 [survivor count not shown] and 127 % of control [survivor count not shown] (dose: 25.0 mg/kg/injection, schedule: Q04DX003 (ip), vehicle: Klucel (hydroxypropylcellulose) (HPC)); 113 % of control [survivor count not shown] (dose: 28.0 mg/kg/injection, schedule: Q01DX009 (ip), vehicle: Klucel (hydroxypropylcellulose) (HPC)).

With `CCCCCN(C)Cc1ncccc1OC(=O)N(C)C`, the T/C reads like this: (dose: 0.78 mg/kg/injection, schedule: Q04DX003 (ip), vehicle: saline with Tween-80) 98 % of control [survivor count not shown]; (dose: 1.56 mg/kg/injection, schedule: Q04DX003 (ip), vehicle: saline with Tween-80) 89 % of control [survivor count not shown].

Take `Cc1nc2ccccc2c(=O)n1N(CCCl)CCCl`: the T/C (dose: 100.0 mg/kg/injection, schedule: Q01DX001 (ip), vehicle: saline) was 100 % of control [survivor count not shown].

Consider `O=C(O)c1ccc(CN(CCCl)CCCl)cc1`, for which the T/C (dose: 0.76 mg/kg/injection, schedule: Q04DX003 (ip), vehicle: water) is 115 % of control [survivor count not shown]; the T/C (dose: 0.78 mg/kg/injection, schedule: Q04DX003 (ip), vehicle: water) is 118 % of control [survivor count not shown]; the T/C (dose: 1.56 mg/kg/injection, schedule: Q04DX003 (ip), vehicle: water) is 113 [survivor count not shown] and 126 % of control [survivor count not shown]; the T/C (dose: 3.12 mg/kg/injection, schedule: Q04DX003 (ip), vehicle: water) is 121 [survivor count not shown] and 134 % of control [survivor count not shown]; the T/C (dose: 6.25 mg/kg/injection, schedule: Q04DX003 (ip), vehicle: water) is 134 % of control [survivor count not shown].

As to `ClCCN(CCCl)CCc1ccccc1`, the T/C reads like this: (dose: 1.8 mg/kg/injection, schedule: Q01DX009 (ip), vehicle: saline) 104 % of control [survivor count not shown]; (dose: 2.6 mg/kg/injection, schedule: Q01DX009 (ip), vehicle: saline) 104 % of control [survivor count not shown]; (dose: 3.6 mg/kg/injection, schedule: Q01DX015 (ip), vehicle: saline) 105 % of control [survivor count not shown]; (dose: 4.0 mg/kg/injection, schedule: Q01DX009 (ip), vehicle: saline) 107 % of control [survivor count not shown]; (dose: 5.5 mg/kg/injection, schedule: Q01DX015 (ip), vehicle: saline) 89 % of control [survivor count not shown]; (dose: 6.0 mg/kg/injection, schedule: Q01DX009 (ip), vehicle: saline) 112 % of control [survivor count not shown]. Also, the T/C is, setting by setting: (dose: 11.0 mg/kg/injection, schedule: Q01DX001 (ip), vehicle: saline) 108 [survivor count not shown], 113 [survivor count not shown], 117 % of control [survivor count not shown]; (dose: 12.5 mg/kg/injection, schedule: Q01DX001 (ip), vehicle: saline) 122 % of control [survivor count not shown]; (dose: 16.6 mg/kg/injection, schedule: Q01DX001 (ip), vehicle: saline) 109 [survivor count not shown] (2×) and 125 % of control [survivor count not shown]; (dose: 25.0 mg/kg/injection, schedule: Q01DX001 (ip), vehicle: saline) 127 [survivor count not shown] and 134 % of control [survivor count not shown]; (dose: 37.5 mg/kg/injection, schedule: Q01DX001 (ip), vehicle: saline) 114 % of control [survivor count not shown].

For the compound `ClCCNC(CCl)CCl`, the T/C was 96 % of control [survivor count not shown] (dose: 12.5 mg/kg/injection, schedule: Q01DX Z (ip), vehicle: other); 129 % of control [survivor count not shown] (dose: 18.7 mg/kg/injection, schedule: Q01DX Z (ip), vehicle: saline); 92 % of control [survivor count not shown] (dose: 25.0 mg/kg/injection, schedule: Q01DX Z (ip), vehicle: other); 113 % of control [survivor count not shown] (dose: 37.5 mg/kg/injection, schedule: Q01DX Z (ip), vehicle: saline); 112 % of control [survivor count not shown] (dose: 50.0 mg/kg/injection, schedule: Q01DX Z (ip), vehicle: other); 124 % of control [survivor count not shown] (dose: 75.0 mg/kg/injection, schedule: Q01DX Z (ip), vehicle: saline). Further, the T/C (dose: 100.0 mg/kg/injection, schedule: Q01DX Z (ip), vehicle: other) was 139 % of control [survivor count not shown]; the T/C (dose: 100.0 mg/kg/injection, schedule: Q01DX Z (ip), vehicle: saline) was 102 % of control [survivor count not shown]; the T/C (dose: 150.0 mg/kg/injection, schedule: Q01DX Z (ip), vehicle: saline) is 128 % of control [survivor count not shown]; the T/C (dose: 176.0 mg/kg/injection, schedule: Q01DX001 (ip), vehicle: saline) was 102 % of control [survivor count not shown]; the T/C (dose: 264.0 mg/kg/injection, schedule: Q01DX001 (ip), vehicle: saline) was 104 % of control [survivor count not shown].
